Reference: publication PMC2074394 (British Journal of Cancer, 1996)

Key:
[1] = test system: MCF-7/Adr cells; experiment: Inhibition of growth of multidrug-resistant MCF-7/Adr cells, without or with reserpine; format: cell-based; details: Homo sapiens, NCI/ADR-RES, 96 h; 4 days incubation; without reserpine
[2] = test system: PKC; details: cited from earlier work; further: key: +: potent effect; (+): weak effect; -: no effect

CO[C@@H]1[C@H](N(C)C(=O)c2ccccc2)C[C@H]2O[C@]1(C)n1c3ccccc3c3c4c(c5c6ccccc6n2c5c31)C(=O)NC4 [CGP 41251, 4'-N-benzoyl staurosporine]
IC50 [1]: 283 nM
PKC inhibition, specificity (Table III summary) [2]: +
PKC inhibition, potency (Table III summary) ([2]; ref Courage et al., 1995): +
